Assay results published in article PMC5511349.
Results are given in words; binding and its absence hold for the method and conditions named. In cells and extracts the contact can be indirect. Some results given as binding are weak or reduced against the parent protein; the word gives no strength.

Sequences of proteins named here, by UniProt entry; tags and fusion partners are left off.
UniProt P17844: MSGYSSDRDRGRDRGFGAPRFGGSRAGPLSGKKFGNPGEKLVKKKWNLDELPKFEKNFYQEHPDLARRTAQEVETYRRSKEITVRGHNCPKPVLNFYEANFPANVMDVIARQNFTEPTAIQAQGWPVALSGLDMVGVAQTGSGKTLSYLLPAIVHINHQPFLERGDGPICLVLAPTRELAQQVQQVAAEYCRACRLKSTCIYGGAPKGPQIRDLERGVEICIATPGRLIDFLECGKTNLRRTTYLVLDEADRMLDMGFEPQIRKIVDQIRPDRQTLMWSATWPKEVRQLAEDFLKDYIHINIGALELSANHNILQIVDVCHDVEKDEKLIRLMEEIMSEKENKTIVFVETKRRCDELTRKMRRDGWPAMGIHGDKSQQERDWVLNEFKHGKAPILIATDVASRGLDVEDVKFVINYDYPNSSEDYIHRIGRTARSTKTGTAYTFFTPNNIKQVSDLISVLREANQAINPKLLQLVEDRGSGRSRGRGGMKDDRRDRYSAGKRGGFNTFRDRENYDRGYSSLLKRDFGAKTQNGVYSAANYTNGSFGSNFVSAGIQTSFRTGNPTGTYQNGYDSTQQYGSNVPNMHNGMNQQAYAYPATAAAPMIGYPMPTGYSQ
UniProt Q92841: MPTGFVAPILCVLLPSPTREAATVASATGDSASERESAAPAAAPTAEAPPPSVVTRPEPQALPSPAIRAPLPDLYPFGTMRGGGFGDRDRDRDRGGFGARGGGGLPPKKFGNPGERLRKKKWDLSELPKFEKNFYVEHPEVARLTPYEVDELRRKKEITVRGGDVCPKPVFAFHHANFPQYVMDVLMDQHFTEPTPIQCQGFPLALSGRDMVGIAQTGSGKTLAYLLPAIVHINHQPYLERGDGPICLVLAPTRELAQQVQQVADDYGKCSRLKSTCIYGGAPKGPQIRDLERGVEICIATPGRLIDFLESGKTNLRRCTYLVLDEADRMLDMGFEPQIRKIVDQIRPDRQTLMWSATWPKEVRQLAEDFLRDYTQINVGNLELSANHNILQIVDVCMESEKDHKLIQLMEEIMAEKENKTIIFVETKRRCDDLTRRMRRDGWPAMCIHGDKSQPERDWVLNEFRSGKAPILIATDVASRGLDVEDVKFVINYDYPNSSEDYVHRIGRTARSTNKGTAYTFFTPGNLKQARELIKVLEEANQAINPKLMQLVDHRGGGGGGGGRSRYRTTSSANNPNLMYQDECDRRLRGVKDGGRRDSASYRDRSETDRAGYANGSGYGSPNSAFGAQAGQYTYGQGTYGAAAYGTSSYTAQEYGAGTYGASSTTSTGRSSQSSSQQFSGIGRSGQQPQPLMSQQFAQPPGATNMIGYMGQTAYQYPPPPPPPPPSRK

Biological target: DDX5 (human (endogenous in K562 or 293T cells)) (UniProt P17844)
Experiment: co-IP; cells crosslinked with 1% formaldehyde 10 min, nuclei lysed and sonicated; immunoprecipitated with anti-DDX5 (Bethyl A300-523A), blotted for DDX17 (Bethyl A300-509A)

binding: binds
Substance: DDX17 (from UniProt Q92841 1-729)
